Assay [1] addresses T1, endogenous HERC3 (human (endogenous in MCF–7)) (UniProt Q15034).
T1 sequence: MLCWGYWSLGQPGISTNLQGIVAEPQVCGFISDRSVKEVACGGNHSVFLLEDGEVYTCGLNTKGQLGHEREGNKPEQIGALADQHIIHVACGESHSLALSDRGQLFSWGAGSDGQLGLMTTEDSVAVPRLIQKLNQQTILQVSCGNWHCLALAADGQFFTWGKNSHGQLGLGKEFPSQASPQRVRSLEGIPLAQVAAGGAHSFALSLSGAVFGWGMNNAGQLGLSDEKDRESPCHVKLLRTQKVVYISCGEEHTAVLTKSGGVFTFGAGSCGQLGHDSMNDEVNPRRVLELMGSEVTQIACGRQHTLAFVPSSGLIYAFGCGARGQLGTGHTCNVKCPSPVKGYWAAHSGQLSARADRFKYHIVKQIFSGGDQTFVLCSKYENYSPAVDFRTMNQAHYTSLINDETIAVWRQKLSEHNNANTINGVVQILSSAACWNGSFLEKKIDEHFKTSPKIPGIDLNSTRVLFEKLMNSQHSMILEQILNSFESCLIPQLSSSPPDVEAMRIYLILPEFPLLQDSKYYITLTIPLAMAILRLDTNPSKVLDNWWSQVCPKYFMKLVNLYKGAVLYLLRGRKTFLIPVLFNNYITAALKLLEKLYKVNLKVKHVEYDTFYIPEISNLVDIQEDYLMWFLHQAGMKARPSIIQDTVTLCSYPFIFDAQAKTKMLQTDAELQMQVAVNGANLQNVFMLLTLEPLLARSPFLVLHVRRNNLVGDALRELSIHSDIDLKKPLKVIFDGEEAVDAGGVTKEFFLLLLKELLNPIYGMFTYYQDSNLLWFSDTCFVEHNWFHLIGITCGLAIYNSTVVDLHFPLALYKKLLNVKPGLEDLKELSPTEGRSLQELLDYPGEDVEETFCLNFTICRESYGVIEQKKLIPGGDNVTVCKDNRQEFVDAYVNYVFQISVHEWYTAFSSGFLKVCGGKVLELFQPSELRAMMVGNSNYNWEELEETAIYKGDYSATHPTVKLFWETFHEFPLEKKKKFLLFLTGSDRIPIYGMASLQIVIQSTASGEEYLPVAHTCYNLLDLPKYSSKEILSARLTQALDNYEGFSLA
In words: co-IP; MCF–7 cells; IgG as negative control; Western blot.

Protein sequences, listed by entry. Tags and fused reporters are not part of them. Lines headed by an entry give the natural chain unless they say otherwise; changes in a name come on top.
UniProt P28482: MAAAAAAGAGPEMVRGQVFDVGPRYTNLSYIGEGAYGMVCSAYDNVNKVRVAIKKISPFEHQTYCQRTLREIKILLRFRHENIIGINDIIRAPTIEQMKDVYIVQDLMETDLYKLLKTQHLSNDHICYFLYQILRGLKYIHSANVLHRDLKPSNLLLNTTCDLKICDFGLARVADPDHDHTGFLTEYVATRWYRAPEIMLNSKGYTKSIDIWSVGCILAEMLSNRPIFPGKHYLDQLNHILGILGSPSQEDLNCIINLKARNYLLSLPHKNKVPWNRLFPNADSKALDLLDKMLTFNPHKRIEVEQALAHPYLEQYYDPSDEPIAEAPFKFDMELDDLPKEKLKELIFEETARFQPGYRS

The target in assay [2] is T2, purified GST–HERC3 protein (UniProt Q15034).
T2 sequence: T1 sequence
Briefly: pull-down; purified GST–HERC3 mixed with purified Flag–ERK2 in vitro; GST pulldown; both purified.

Assay [3] has as its target T1, endogenous HERC3 (human (endogenous in MCF–7)). In words: co-IP; endogenous proteins of MCF–7 cells; IgG as negative control; antibody and protein A/G beads overnight at 4 °C; Western blot. A general note: Immunoblotting shows a protein as a band on a membrane.
For another assay, the target named is T3, Myc–HERC3 (UniProt Q15034).
T3 sequence: T1 sequence
Briefly: co-IP; MCF–7 cells co-transfected with Flag–ERK2 and Myc–HERC3 for 24 h; total lysates immunoprecipitated with anti–Myc or anti–Flag and protein A/G beads overnight at 4 °C; Western blot.

The target in a further assay is Flag–ERK2 (UniProt P28482). Described as above.

No constants are given. Whether binding was seen depends on the method and setting. For some assays here: In cells and extracts the contact can be indirect. Some entries that bind do so weakly or less than the wild type. For some assays here: Where a sequence is shown, tags or fusion partners need not be part of it.

As for p53 (from UniProt P04637 1-393), the binding entry in assay [1] is given as “binds”.

Consider “purified Flag–ERK2 protein (from UniProt P28482-1 1-360)”, for which the binding entry in assay [2] was “binds”.

For “endogenous ERK2 (from UniProt P28482-1 1-360)”, the binding entry in assay [3] was “binds”.

For the molecule Flag–ERK2 (from UniProt P28482-1 1-360), the binding entry with Myc–HERC3 was “binds”.

B1: Myc–HERC3 (protein, UniProt Q15034-1 1-1050)
chain: T1 sequence
Regarding B1, the binding entry in the assay with Flag–ERK2 was “binds”.

These data come from PMC9319741, “A Novel ERK2 Degrader Z734 Induces Apoptosis of MCF–7 Cells via the HERC3/p53 Signaling Pathway” (Molecules, 2022).
